Earlier results in patent US20250242060A1, “CHEMOGENETIC REGULATION OF PEPTIDE FUNCTION” (priority 2022, published 2025).
At least one structure is not confirmed: it was looked up by name or label, or the drawing left a doubt.

Details: cited from earlier work

CC[C@H](C(=O)N1CCCC[C@H]1C(=O)O[C@H](CCc1ccc(OC)c(OC)c1)c1cccc(OCCN2CCOCC2)c1)c1cc(OC)c(OC)c(OC)c1 [shield-1]
Membrane permeability: membrane permeant
